The record followed here is publication PMC2851570, “Distinct Roles of Hand2 in Initiating Polarity and Posterior Shh Expression during the Onset of Mouse Limb Bud Development” (PLoS Genetics, 2010).

Chains of the proteins cited; added tags and fusions are not shown.
UniProt P70217: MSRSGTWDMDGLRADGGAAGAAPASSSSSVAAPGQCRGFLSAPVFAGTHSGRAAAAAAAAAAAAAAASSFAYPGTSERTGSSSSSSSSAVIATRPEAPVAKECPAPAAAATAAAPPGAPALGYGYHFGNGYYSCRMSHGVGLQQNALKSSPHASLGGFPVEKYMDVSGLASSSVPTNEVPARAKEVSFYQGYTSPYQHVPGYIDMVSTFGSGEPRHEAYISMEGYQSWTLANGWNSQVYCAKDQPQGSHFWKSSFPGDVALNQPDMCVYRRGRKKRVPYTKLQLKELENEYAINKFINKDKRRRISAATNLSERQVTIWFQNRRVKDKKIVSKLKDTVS

No constants are given. Whether binding was seen depends on the method and setting. Binding seen in cells or lysates may run through a third protein. Some entries that bind do so weakly or less than the wild type.

In assay [1] the target is Hoxd13 (mouse (endogenous in limb buds)) (UniProt P70217). Nature of the assay: co-IP; 50 wild-type mouse limb buds at E10.5; anti-Hoxd13 or control rabbit IgG antibodies covalently cross-linked to G protein beads; bound proteins detected by Western blotting with Hand2 antibodies. (A western blot detects proteins with antibodies after separation by electrophoresis.)
For assay [2], the target named is Hoxd13 (expressed in transfected cells) (UniProt P70217). Nature of the assay: co-IP; transfected HEK293T cells; protein extracts immunoprecipitated with anti-Flag (Hand2), anti-Hoxd13 (Hoxd13) or anti-Myc (Gli3R) and immunoblotted with the appropriate antibodies.

In the case of Hand2 (from UniProt Q61039 1-217), the binding result in assay [1] is “binds”.

B1: Hand2, Flag-epitope tagged (natural protein, UniProt Q61039 1-217, looked up)
chain: MSLVGGFPHHPVVHHEGYPFAAAAAAAAAAAASRCSHEENPYFHGWLIGHPEMSPPDYSMALSYSPEYASGAAGLDHSHYGGVPPGAGPPGLGGPRPVKRRGTANRKERRRTQSINSAFAELRECIPNVPADTKLSKIKTLRLATSYIAYLMDLLAKDDQNGEAEAFKAEIKKTDVKEEKRKKELNEILKSTVSSNDKKTKGRTGWPQHVWALELKQ
With B1, the binding entry in assay [2] is “binds”.
